# PubChem BioAssay AID445 (National Center for Advancing Translational Sciences (NCATS), 2006)
# Some of the results follow. Further columns of the screen follow, without active or inactive calls. Most of these compounds were active or inconclusive in the main read-out, so they are no random draw. Words in brackets tell the shape of the fitted curve; partial curves, single points and poor fits give uncertain potencies.
# Experiment: IkB Signaling
# Settings: ABC-DLBCL IkBa-CBG/CBR dual luciferase ratio (green luciferase fused to IkBa over red control in OCI-Ly3 lymphoma cells), 4 h; measured here: control luc red channel unless noted
# How it was run: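 Luminescence ratio of IκBα-fused green versus native red beetle luciferase in OCI-Ly3 cells, 4 h post-doxycycline with compound; red signal alone, scaled from basal (0%) to zero light (-100%), flagged nonspecific or cytotoxic effects.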
row,SMILES,AC50
1,COc1ccc(-n2c(Cc3cccn3C)nnc2SCC(=O)Nc2ccc(C)cc2)cc1,"20 µM [falling, partial curve]"
2,Cc1ccc(-n2ncc(C(=O)NCc3ccco3)c2C2CCN(C(=O)OC(C)(C)C)CC2)cc1C,"0.0316 µM [falling, full curve, poor fit]"
3,CC(C)(C)CC(=O)Nc1nnc(-c2cccs2)s1,"0.00794 µM [rising, full curve]"
4,Cc1cc(N2CCCCC2)nc(SCC(=O)c2ccccc2)n1,"31.6 µM [falling, single point]"
5,COc1ccc(OC)c(NS(=O)(=O)c2ccc(NC(=O)C3COc4ccccc4O3)cc2)c1 (stereo not given),"3.98 µM [falling, partial curve]"
6,O=C(Nc1sc2c(c1C(=O)NCc1cccnc1)CCCC2)c1ccco1,"12.6 µM [falling, partial curve]"
7,CCCCCCOc1ccc(C2C(=O)N(C3CCCCC3)CC(=O)N2C2CCCCC2)cc1 (stereo not given),"39.8 µM [falling, single point]"
8,CCN(CC)S(=O)(=O)c1ccc(C(=O)NCCSc2c(-c3ccccc3)[nH]c3ccccc23)cc1,"10 µM [falling, partial curve, poor fit]"
9,CC1CCN(Cc2nc(-c3ccccc3)no2)CC1,"2 µM [rising, partial curve]"
10,Cc1c(C(=O)NCc2cccnc2)sc2nc(-c3ccc(F)cc3)cn12,"20 µM [falling, partial curve]"
11,COc1cc(NC(=O)CSc2c3c(nc4ccccc24)CCC3)cc(OC)c1OC,"3.98 µM [falling, full curve]"
12,COc1ccc(N(C)S(=O)(=O)c2cccc(C(=O)Nc3ccc(-n4cnnn4)cc3)c2)cc1,"20 µM [falling, partial curve]"
13,O=C1CC(Sc2nnc(-c3ccccc3O)o2)C(=O)N1c1ccccc1 (stereo not given),"15.8 µM [falling, partial curve]"
14,CC1CCN(c2ccc(-c3cccc(NS(=O)(=O)c4ccc(F)cc4F)c3)nn2)CC1,"7.94 µM [falling, partial curve]"
15,CCOC(=O)c1sc(NC(=O)c2c(-c3ccccc3)c(-c3ccccc3)nn(C)c2=O)nc1C,"25.1 µM [falling, partial curve]"
16,CC1CCN(C(=O)CSc2nc(-c3ccc(F)cc3)cc(C(F)(F)F)n2)CC1,"5.01 µM [falling, full curve, poor fit]"
17,COc1ccc2[nH]cc(CCNc3cc(-c4cccc(C#N)c4)ncn3)c2c1,"3.16 µM [falling, partial curve] [measured here: IkB-luc green channel]"
18,CCc1ccc(Nc2nc3ccccc3nc2NS(=O)(=O)c2ccccc2)cc1,"6.31 µM [falling, partial curve]"
19,Cc1ccc(NC(=O)/C=C/c2ccccc2Cl)cc1Cl,"0.00794 µM [rising, full curve, poor fit]"
20,Cc1cc2c(cc1S(=O)(=O)Nc1cc(C(F)(F)F)cc(C(F)(F)F)c1)OCC(=O)N2,"15.8 µM [falling, partial curve]"

row,SMILES,AC50
1,O=C(Cn1c(=O)nc(-c2ccccc2)c2ccccc21)Nc1ccc(Cl)cc1F,"0.398 µM [falling, full curve, poor fit]"
2,CCCCOC(=O)c1ccc(NC(=O)c2sc3nc(C)cc(C)c3c2N)cc1,"0.126 µM [falling, full curve]"
3,COc1ccc(N(C)C(=O)Cn2cc(S(=O)(=O)N3CCN(c4ccccc4F)CC3)c3ccccc3c2=O)c(OC)c1,"10 µM [falling, partial curve]"
4,COc1ccc(NC2=C(c3ccc(C(F)(F)F)cc3)C(=O)c3ccccc32)cc1,"20 µM [falling, single point]"
5,FC(F)(F)c1ccc(N2CCN(c3cc(-c4ccccc4)nc4ncnn34)CC2)nc1,"10 µM [falling, partial curve]"
6,COc1ccc(S(=O)(=O)N2CCN(c3ccccc3OC)CC2)cc1,"3.16 µM [falling, partial curve, poor fit]"
7,Cc1ccc(-c2nc(C)c(CCNC(=O)c3ccccc3Br)s2)cc1,"31.6 µM [falling, partial curve, poor fit]"
8,COCCNC(=O)c1ccccc1NC(=O)c1nsc2ccccc12,"6.31 µM [rising, single point]"
9,Cc1ccc(-n2cnnn2)cc1S(N)(=O)=O,"7.94 µM [rising, single point]"
10,COc1nc(-c2ccccc2)cc(-c2ccc(OC)c(OC)c2)n1,"5.01 µM [falling, full curve]"
11,COc1ccc2[nH]cc(CCN=C(NC(=O)c3ccccc3OC)Nc3nc(C)cc(C)n3)c2c1,"7.94 µM [falling, partial curve]"
12,COC(=O)Cn1c(SCCOc2ccccc2OC)nc2ccccc21,"2 µM [rising, partial curve]"
13,Cc1ccc(NC(=O)c2ccc(NC(=O)CCS(=O)(=O)c3cccs3)cc2)cc1F,"3.16 µM [falling, full curve]"
14,COc1cccc(Cn2cc(C(=O)c3ccc(Cl)cc3)c(=O)c3ccccc32)c1,"39.8 µM [falling, single point]"
15,Clc1ccc(OCc2nc(-c3ccncc3)no2)c(Br)c1,"31.6 µM [falling, single point]"
16,Cc1nc2cccnc2n1C1CCN(C(=O)Nc2ccc(Cl)cc2)CC1,"1.58 µM [rising, full curve, poor fit]"
17,CCc1c(C)sc2c1CCN(Cc1ccccc1F)C2c1ccccc1 (stereo not given),"31.6 µM [falling, single point]"
18,CCOc1ccc(-c2c(C)nn3c(C)c(C(=O)NCCc4ccc(C)cc4)cnc23)cc1OCC,"31.6 µM [falling, partial curve]"
19,O=C(NCCSc1c[nH]c2ccccc12)c1ccccc1Cl,"7.94 µM [falling, partial curve]"
20,CCN1CCN(Cc2c(O)ccc3oc(C)c(C(=O)Nc4cccc(C(F)(F)F)c4)c23)CC1,"15.8 µM [falling, partial curve]"

# Part of the list above in order of formula weight, ascending.
row,SMILES,AC50
13,O=C1CC(Sc2nnc(-c3ccccc3O)o2)C(=O)N1c1ccccc1 (stereo not given),"15.8 µM [falling, partial curve]"
1,O=C(Cn1c(=O)nc(-c2ccccc2)c2ccccc21)Nc1ccc(Cl)cc1F,"0.398 µM [falling, full curve, poor fit]"
20,Cc1cc2c(cc1S(=O)(=O)Nc1cc(C(F)(F)F)cc(C(F)(F)F)c1)OCC(=O)N2,"15.8 µM [falling, partial curve]"
